{
  "source": "PubChem BioAssay AID1508600",
  "about": "(Functional Genomics Laboratory (NCATS/FGL), 2020)",
  "note": "Screen size: about 53,000 sequences; about 3,700 (7%) were called active.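 How the source made its calls: active means gene knockdowns whose robust z-score for IL-1 alpha signal is at least 2 or at most -2, so actives lie on both sides; inactive means the rest.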 The list shows a part of the results.",
  "data": [
    {"assay": "Components of the Cytosolic LPS Sensing Pathway: Gene Identification via Genome-wide siRNA Screen;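 further: robust z of the log signal after scaling to non-targeting control siRNA wells of the plate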", "conditions": "RAW264.7 macrophages, IL-1a HTRF, actives lie on both sides, screened at 100 nM (by protocol), cells primed 5 h with Pam3CSK4 first", "in_short": "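RAW264.7; siRNA 100 nM final, RNAiMAX, 48h 37 degrees C; Pam3CSK4 5 h; LipidA + TransIT-TKO 24 h; IL-1a HTRF; CellTiter-Glo viability; robust z vs negative-control median.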", "values": [
      {"sequence": "CGUGGCCGUUAGUUGUAAATT against Zbtb40", "z-score": "inactive: 0.237"},
      {"sequence": "GGAGAAAUAAGAAAUUUGGTT against Rpgrip1l", "z-score": "inactive: 0.228"},
      {"sequence": "GCGGAACCUAUAUAGGAAUTT against Zfp74", "z-score": "inactive: -0.292"},
      {"sequence": "GGCAAAGUUCUCUUCCAUATT against Olfr914", "z-score": "inactive: 0.0997"},
      {"sequence": "GGAGAAAACAGGAAUUGUGTT against H2-Eb1", "z-score": "inactive: -0.748"},
      {"sequence": "GCUAUUUGUCCCUUAGCAGTT against Slc22a5", "z-score": "inactive: 1.59"},
      {"sequence": "CGAAUAUGGGAUCAAGAAATT against Nt5el", "z-score": "inactive: -1.3"},
      {"sequence": "GGUUGAGUGUUUAACUUAGTT against Trappc5", "z-score": "inactive: -1.32"},
      {"sequence": "CCACACCUUCAAAGCGAGATT against L3mbtl4", "z-score": "inactive: -0.104"},
      {"sequence": "GCAAGAACCUAGAGUUAUUTT against Zfp105", "z-score": "inactive: 0.225"},
      {"sequence": "GGAACAAGCAUACAGGUUCTT against Nphp1", "z-score": "inactive: 1.85"},
      {"sequence": "GGCAACAGCAUCCUACUCUTT against Olfr652", "z-score": "active: -2.12"},
      {"sequence": "GGCUAACCACAUUUGCUUCTT against Zic4", "z-score": "inactive: 0.759"},
      {"sequence": "GGAUGAGGAGAUAAAGUCUTT against Misp", "z-score": "inactive: -0.981"},
      {"sequence": "GGUACUAAAUAUAAAUGGCTT against Igsf6", "z-score": "inactive: 1.27"},
      {"sequence": "CCCGCUAUUUGGUGCUAACTT against Amh", "z-score": "active: 3.21"},
      {"sequence": "GCAACAAGCUGAUAGGGACTT against Otof", "z-score": "inactive: 0.454"},
      {"sequence": "GCCUACACCAGUCCUUUGATT against Baiap2l1", "z-score": "inactive: 0.509"},
      {"sequence": "CGACAAUCAACCUACCAGCTT against Cd68", "z-score": "inactive: 0.418"},
      {"sequence": "GGAAGGAUCCGUGAUGAAGTT against Lypd10", "z-score": "inactive: -0.479"},
      {"sequence": "GGAUUCCUACAGCUUCACGTT against Gm9732", "z-score": "inactive: 1.16"},
      {"sequence": "CCUGAUAGUAUUUUACGAGTT against Catsperd", "z-score": "inactive: -0.331"},
      {"sequence": "CCUCACAGUAUUCGGCCGATT against Adamts2", "z-score": "inactive: 1.3"},
      {"sequence": "GGAAUUCAUGUUUUCGCUUTT against Slc9a3r2", "z-score": "inactive: 1.06"},
      {"sequence": "GGAUUCAUAUGUGAUUGACTT against Flt4", "z-score": "inactive: 1.6"},
      {"sequence": "CCAGGGAUCUACAUCUACATT against Olfr1367", "z-score": "inactive: 0.0288"},
      {"sequence": "GGGAGAUUCAUUUUCCCAGTT against Rnf43", "z-score": "inactive: 0.0663"},
      {"sequence": "CCGUUUUGGUCACGUAUCATT against Olfr599", "z-score": "inactive: -0.401"},
      {"sequence": "GGAUAAGGGAAUCACUAUCTT against Ankrd24", "z-score": "inactive: -0.331"},
      {"sequence": "GGAGGAGAGAUGGUAAUCCTT against Olfr729", "z-score": "inactive: -0.185"},
      {"sequence": "GCAGAAACCGUAAAAGCCUTT against Lypla1", "z-score": "inactive: -0.987"},
      {"sequence": "GGGAGCAAACGAGAAGAUATT against Gjd2", "z-score": "active: 4.09"},
      {"sequence": "GCGACCAUUUCGUUUUAGUTT against Frat1", "z-score": "inactive: 1.07"},
      {"sequence": "GCUGCCGUACAGUCUCUAATT against Harbi1", "z-score": "inactive: 0.263"},
      {"sequence": "CGAGACUCUAGAUAGACUGTT against Zswim3", "z-score": "inactive: -1.29"},
      {"sequence": "GCUUCAGUGGCUACUCUUGTT against H2-M2", "z-score": "inactive: 0.63"},
      {"sequence": "GGUCUUCUACAACUCGGAATT against Sgpp1", "z-score": "inactive: -0.146"},
      {"sequence": "GGAGCUGUCUAUCACCUGGTT against Popdc2", "z-score": "inactive: 0.646"},
      {"sequence": "GCUGCUGACUUAUAACUGGTT against Szt2", "z-score": "inactive: 1.15"},
      {"sequence": "GGCUCUUUGUUCAGUUUUUTT against Fxyd3", "z-score": "active: 2.52"},
      {"sequence": "GGAUGAGAAACCAUUUAAATT against Oas1f", "z-score": "inactive: -1.08"},
      {"sequence": "CCUGCGUUGACCAAUCAGATT against C2cd2l", "z-score": "inactive: -1.26"},
      {"sequence": "GCAGAUCAACUACGGGAAGTT against Slbp", "z-score": "inactive: 0.405"},
      {"sequence": "CGAAUAGAUCAAGUGAGACTT against Spata19", "z-score": "inactive: -1.24"},
      {"sequence": "GGACCUGGUUAAGAUAUGUTT against Pmch", "z-score": "inactive: 0.628"},
      {"sequence": "CCGGGAUAACGACCCUAAUTT against Polr2c", "z-score": "inactive: -0.654"},
      {"sequence": "GGAUUCAGAAGCAGCAACATT against Nr1h2", "z-score": "active: -2.29"},
      {"sequence": "GGCUGAUAAAAGUUUCAGATT against C9", "z-score": "inactive: 0.59"},
      {"sequence": "GGAUCACGGUCUACAAUAATT against 1700009J07Rik", "z-score": "inactive: 0.214"},
      {"sequence": "GUAUGUUCAUAUGGUUUUCTT against Swi5", "z-score": "active: 2.33"},
      {"sequence": "UCAGGUCGCUGCUAAACUCTT against Ccdc57", "z-score": "inactive: -1.26"},
      {"sequence": "GGGCAGUGCCUAUUUGAACTT against Cyp4f18", "z-score": "inactive: 0.877"},
      {"sequence": "GGCUAUGGUGAAAUAAACGTT against Nufip2", "z-score": "inactive: 0.368"},
      {"sequence": "GGGAAAGGAGGACAAAGAGTT against Gip", "z-score": "inactive: 0.374"}
    ]}
  ]
}
